{"sequences": {"note": "Sequences of proteins named here, by UniProt entry; tags and fusion partners are left off. Residues count along the entry.", "UniProt P14416, 1-414 isoform 2": "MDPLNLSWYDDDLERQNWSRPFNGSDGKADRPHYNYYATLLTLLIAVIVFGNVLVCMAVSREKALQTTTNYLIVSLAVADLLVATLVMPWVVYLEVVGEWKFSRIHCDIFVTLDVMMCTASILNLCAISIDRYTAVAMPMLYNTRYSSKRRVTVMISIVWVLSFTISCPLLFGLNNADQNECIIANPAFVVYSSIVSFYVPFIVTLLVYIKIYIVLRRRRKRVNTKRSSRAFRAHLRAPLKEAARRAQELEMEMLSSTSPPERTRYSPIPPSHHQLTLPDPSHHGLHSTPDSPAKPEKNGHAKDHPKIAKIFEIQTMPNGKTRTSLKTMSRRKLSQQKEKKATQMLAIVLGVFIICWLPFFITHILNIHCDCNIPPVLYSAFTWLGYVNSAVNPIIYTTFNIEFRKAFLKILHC"}, "source": "patent US12029738B2", "about": "“Antiproliferative compounds and methods of use thereof” (Celgene Corporation, priority 2017, dated 2024)", "biological_target": "dopamine D2S receptor (Homo sapiens, UniProt P14416)", "experiment": "Dopamine D2S receptor radioligand binding (HEK-293)", "details": "read-out: D2S Binding IC50", "protocol": "α1 Adrenergic and Dopamine D2 Receptors. Methods: Binding and functional assays for α1 adrenergic and dopamine D2 receptors were performed by Eurofins Cerep according to their methods.\nDopamine D2 Receptor. Binding at 10 μM. The binding assay evaluated the affinity of test articles for the dopamine D2 receptor in transfected human embryonic kidney (HEK)-293 cells. For determining the binding in the D2S receptor assay, test article was incubated with 0.3 nM [^3H] methylspiperone or 1 nM [^3H] 7-hydroxy-2-N,N-dipropylaminotetralin (7-OH-DPAT). [3H] Methylspiperone at 0.3 nM also was used as control ligand in the D2L binding assay. Cell membrane homogenates were incubated in duplicate at room temperature for 60 minutes with ligand in the absence or presence of test articles at 10 μM. After the incubation period, samples were filtered through glass fiber filters, the filters dried and then counted for radioactivity using a scintillation counter. Results are expressed as mean percent inhibition of control radioligand binding.\nBinding IC50. To determine the binding IC50 in the D2 receptor assays, HEK-293 were tested as described above but with varying concentrations of test article. Compound A was tested at 0.01-30 μM in the D2S radioligand binding assay. Compound B was tested at 0.0003-10 μM in both the D2S and D2L binding assays. […]", "note": "Some entries of the source have several records that differ or are many. The list is limited to them. The source may hold further records. The values listed for one entry do not match, cause unknown; they may come from other doses, times, organisms or constructs than stated.", "data": [{"smiles": "O=C1CC[C@H](N2Cc3c(OCc4ccc(CN5CCN(c6ccc(F)cc6F)CC5)cc4)cccc3C2=O)C(=O)N1", "note": "[Compound B]", "values": [{"measurement": "IC50", "result": "16 nM to 47 nM, 16 nM, 21 nM, 47 nM"}]}]}
